PubChem BioAssay AID256 (DTP/NCI, 2004)
The list is a part of this screen's results and no random one: it is rich in T/C values a quarter to a half above the control, in often repeated tests (any T/C) and in doses without a T/C. Further doses and runs are listed elsewhere. T/C gives the treated animals as a percentage of the vehicle group. Some entries give survivors of the animals treated and no T/C: the source files T/C as zero there, which appears to mark a toxic dose or a test without result, not a measured value. Some doses without a T/C left all or most animals alive at the check, yet need not have been tolerated: survival well below the control is almost never listed, so the zero probably covers shortened survival too. Survivors were counted at the toxicity check, usually on the fifth day, unless a day is given; later deaths do not show. Schedules are NCI's codes, taken here to give the interval after Q, in days (D) or hours (H), and the number of doses after X. Some molecules as drawn cover several salts, stereoisomers or complexes of the source; a dose is that of the sample tested. For survival time, the PubChem record calls one and a half times the control and up active, and a quarter to a half above the control has no call in these data; cut-offs in other NCI protocols can differ. Some T/C values carry the count of animals alive at the toxicity check (mostly the fifth day); without a count, all were alive then. Some doses were run more than once; their values stand side by side, smallest first.

System: CD2F1 mice, L1210 leukemia ip, survival T/C
Experiment: NCI In Vivo Anticancer Drug Screen. Data for tumor model L1210 Leukemia (intraperitoneal) in CD2F1 (CDF1) mice
Conditions: higher T/C = longer survival
Outline: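 Antitumor effect is scored in animals hosting a serially transplanted tumor. Values compare compound-dosed animals against vehicle-only controls as a simple quotient.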

[1] = T/C endpoint: mean survival time, dose: 400.0 mg/kg/injection, schedule: Q01DX001 (ip), vehicle: saline
[2] = T/C endpoint: mean survival time, dose: 400.0 mg/kg/injection, schedule: Q04DX003 (ip), vehicle: saline with Tween-80
[3] = T/C endpoint: mean survival time, dose: 300.0 mg/kg/injection, schedule: Q01DX001 (ip), vehicle: saline

Question: How did the survivor count [1] turn out when Clc1ccc2c(Cl)c3c(nc2c1)CCCC3 was run?
Answer: Its survivor count is 2 of 4.

Question: How did the survivor count (T/C endpoint: mean survival time, dose: 300.0 mg/kg/injection, schedule: Q01DX001 (ip), vehicle: other) turn out when CC(=O)Nc1nc(Cl)nc2c1ncn2Cc1ccccc1 was run?
Answer: The survivor count was 0 of 6.

Question: For Oc1ccc(O)c(CCCCCc2cc(O)ccc2O)c1, which survivor count (T/C endpoint: mean survival time, dose: 400.0 mg/kg/injection, schedule: Q01DX009 (ip), vehicle: other) is on record?
Answer: The survivor count was 0 of 6.

Question: What does the source list for C1C2CC3CC3CC12 (centres undefined)?
Answer: survivor count (T/C endpoint: mean survival time, dose: 200.0 mg/kg/injection, schedule: Q04DX003 (ip), vehicle: saline with Tween-80): 3 of 6; survivor count [2]: 0 of 6

Question: Which survivor count [1] does the source give for c1ccc(-c2nc(-c3nn[nH]n3)c3ccccc3n2)cc1 here?
Answer: The survivor count was 0 of 3.

Question: Which survivor count (T/C endpoint: mean survival time, dose: 300.0 mg/kg/injection, schedule: Q04DX003 (ip), vehicle: saline) does the source give for O=S1CCCCO1 (centres undefined) here?
Answer: The survivor count was 1 of 6.

Question: Which results are given for COc1cc2c(c(OC)c1OC)-c1ccc(SC)c(=O)cc1[C@@H](NC1OCC(O)C(O)C1O)CC2 (some centres undefined)?
Answer: T/C (T/C endpoint: mean survival time, dose: 24.0 mg/kg/injection, schedule: Q01DX009 (ip), vehicle: other): 125 % of control; T/C (T/C endpoint: mean survival time, dose: 48.0 mg/kg/injection, schedule: Q01DX009 (ip), vehicle: other): 135 % of control; T/C (T/C endpoint: mean survival time, dose: 50.0 mg/kg/injection, schedule: Q01DX009 (ip), vehicle: other): 133 % of control; T/C (T/C endpoint: mean survival time, dose: 96.0 mg/kg/injection, schedule: Q01DX009 (ip), vehicle: other): 127 % of control; survivor count (T/C endpoint: mean survival time, dose: 200.0 mg/kg/injection, schedule: Q01DX009 (ip), vehicle: other): 4 of 6

Question: With CO[C@H]1/C=C/O[C@@]2(C)Oc3c(C)c(O)c4c(O)c(c(/C=N/N5C(C)CN(Cc6ccccc6)CC5C)c(O)c4c3C2=O)NC(=O)/C(C)=C\C=C\[C@H](C)[C@H](O)[C@@H](C)[C@@H](O)[C@@H](C)[C@H](OC(C)=O)[C@@H]1C (some centres undefined) as the compound, how does the survivor count (T/C endpoint: mean survival time, dose: 100.0 mg/kg/injection, schedule: Q04DX003 (ip), vehicle: saline with Tween-80) read?
Answer: The survivor count was 6 of 6.

Question: What about the survivor count [2] of the same compound?
Answer: Its survivor count is 5 of 6.

Question: How did the survivor count (T/C endpoint: mean survival time, dose: 200.0 mg/kg/injection, schedule: Q04DX003 (ip), vehicle: saline) turn out when CCN(CC)C(=O)N1CC2CCC(C1)N2C was run?
Answer: Its survivor count is 0 of 6.

Question: What about the survivor count (T/C endpoint: mean survival time, dose: 400.0 mg/kg/injection, schedule: Q04DX003 (ip), vehicle: saline) of the same compound?
Answer: Its survivor count is 0 of 6.

Question: How did the T/C (T/C endpoint: mean survival time, dose: 59.0 mg/kg/injection, schedule: Q01DX009 (ip), vehicle: saline) turn out when C(CC1CO1)CC1OC1CC1CO1 (centres undefined) was run?
Answer: Its T/C is 130 % of control.

Question: What about the T/C (T/C endpoint: mean survival time, dose: 89.0 mg/kg/injection, schedule: Q01DX009 (ip), vehicle: saline) of the same compound?
Answer: Its T/C is 136 % of control.

Question: And the survivor count (T/C endpoint: mean survival time, dose: 133.0 mg/kg/injection, schedule: Q01DX009 (ip), vehicle: saline)?
Answer: Its survivor count is 6 of 6.

Question: What about the survivor count (T/C endpoint: mean survival time, dose: 200.0 mg/kg/injection, schedule: Q01DX009 (ip), vehicle: saline) of the same compound?
Answer: Its survivor count is 1 of 6.

Question: What about the T/C [3] of the same compound?
Answer: Its T/C is 143 % of control [4 of 6 alive].

Question: What about the survivor count (T/C endpoint: mean survival time, dose: 300.0 mg/kg/injection, schedule: Q01DX009 (ip), vehicle: saline) of the same compound?
Answer: The survivor count was 0 of 6.

Question: And the survivor count (T/C endpoint: mean survival time, dose: 450.0 mg/kg/injection, schedule: Q01DX009 (ip), vehicle: saline)?
Answer: The survivor count was 0 of 6.

Question: For CCN(CC)c1ccc(N=Cc2cc(=O)n(C)c3ccccc23)cc1, which survivor count (T/C endpoint: mean survival time, dose: 200.0 mg/kg/injection, schedule: Q01DX001 (ip), vehicle: saline with Tween-80) is on record?
Answer: The survivor count was 6 of 6.

Question: How did the survivor count (T/C endpoint: mean survival time, dose: 150.0 mg/kg/injection, schedule: Q01DX001 (ip), vehicle: saline) turn out when Cc1cc2c(C)c3cc(C)c(N)cc3nc2cc1N was run?
Answer: Its survivor count is 2 of 6.

Question: And the survivor count [3]?
Answer: The survivor count was 0 of 6.

Question: How did the survivor count (T/C endpoint: mean survival time, dose: 100.0 mg/kg/injection, schedule: Q01DX005 (ip), vehicle: other) turn out when NC(=S)c1cc(C(N)=S)[nH]n1 was run?
Answer: The survivor count was 0 of 3.

Question: What does the source list for Nc1ncnc2c1c1c(=O)[nH]c(=O)[nH]c1n2C1OC(CO)C(O)C1O (centres undefined)?
Answer: T/C (T/C endpoint: median survival time, dose: 200.0 mg/kg/injection, schedule: Q01DX009 (ip), vehicle: distilled water + Tween-80): 127 [5 of 6 alive] and 130 % of control; survivor count (T/C endpoint: median survival time, dose: 400.0 mg/kg/injection, schedule: Q01DX009 (ip), vehicle: distilled water + Tween-80): 1 of 6

Question: How did the survivor count (T/C endpoint: mean survival time, dose: 200.0 mg/kg/injection, schedule: Q01DX009 (ip), vehicle: saline with Tween-80) turn out when COC(=O)C(Cl)c1ccc2c(c1)OCO2 (centres undefined) was run?
Answer: Its survivor count is 2 of 6.

Question: What about the survivor count [2] of the same compound?
Answer: The survivor count was 4 of 6.

Question: For O=C(O)c1c2c(nc3ccccc13)Cc1ccccc1-2, which survivor count (T/C endpoint: mean survival time, dose: 200.0 mg/kg/injection, schedule: Q01DX009 (ip), vehicle: water) is on record?
Answer: Its survivor count is 3 of 6.

Question: And the survivor count (T/C endpoint: mean survival time, dose: 400.0 mg/kg/injection, schedule: Q01DX009 (ip), vehicle: water)?
Answer: Its survivor count is 0 of 6.

Question: What about the survivor count [2] of the same compound?
Answer: The survivor count was 0 of 6.
